# From article PMC5526999, “Mass Spectrometry Imaging proves differential absorption profiles of well-characterised permeability markers along the crypt-villus axis” (Scientific Reports, 2017)
# Columns and labels:
# Caco-2 = system: Caco-2; set-up: method as in PMID 1673839, PMID 11259831, PMID 9523990; conditions: ref [1], [15] and [48]; cited from earlier work
# [1] = ref [4]; cited from earlier work
# [2] = LC-ESI MS/MS quantification of drug concentration in intestinal tissue homogenates after oral cassette administration; format: in vivo, rat; conditions: oral 10 µmol/kg, relative to 20 min
# Procedure: Male rats (Han-Wistar, ~ 100 days old, body-weight ~ 300 g) were used in this study. The animals had free access to food and water and were fasted overnight prior drug administration and sacrifice. All experiments were performed in accordance with relevant guidelines and regulations, the animal work was approved by the Local Animal Research Ethics Board of Gothenburg, Sweden. […] The small intestine was collected 20 and 45 min post administration. Four animals were dosed in this study, and non-dosed tissue was prepared from control rats in parallel. The three selected compounds are well characterised drugs and their in-vivo pharmacokinetics have been established in many species, [42], [43]. Therefore, in the present study we focussed on the concept of “vertical” absorption gradients along the crypt-villous axis, which has not been studied earlier. The intestine was removed under anaesthesia using isoflurane (Forene, Abbott, USA), to ensure full viability and oxygenation of the tissue until the moment of excision. […] The samples were analysed by LC-MS/MS and quantified against a calibration standard curve. […] Data was acquired using multiple reaction monitoring (MRM) and mass transitions determined by QuanOptimize (Waters). […] Concentrations were determined against matrix-spiked calibration standards over a range of 6.8nM- 1 µM, for all methods weighted linear regression (1/X^2) was applied.
# [3] = MALDI-MSI of drug distribution in rat small intestine after oral cassette administration; format: in vivo
# Procedure: Male rats (Han-Wistar, ~ 100 days old, body-weight ~ 300 g) were used in this study. […] All experiments were performed in accordance with relevant guidelines and regulations, the animal work was approved by the Local Animal Research Ethics Board of Gothenburg, Sweden. […] Four animals were dosed in this study, and non-dosed tissue was prepared from control rats in parallel. […] Therefore, in the present study we focussed on the concept of “vertical” absorption gradients along the crypt-villous axis, which has not been studied earlier. The intestine was removed under anaesthesia using isoflurane (Forene, Abbott, USA), to ensure full viability and oxygenation of the tissue until the moment of excision. Animals were sacrificed without regaining consciousness by aortal incision and an overdose of isoflurane. Immediately after excision, intestines were divided into 10 cm long segments and each segment was carefully washed with Krebs-Bicarbonate-Ringer buffer (KBR) from the stomach to the large intestine (additional information in Supplementary Data). The first 5–10 mm of each segment were cut, quickly weighed and collected in homogenization tubes for subsequent extraction and LCMS analysis of total drug concentration in the gut-wall. The next 8–9 cm of each segment were prepared for MALDI-MSI analysis. […] The CMC gels quickly on wet-ice/isopropanol and provides tissue support during the subsequent cryosectioning. All samples were stored at −20 °C until cryosectioning. The embedded samples were attached and positioned with OCT-compound (TissueTek) to the specimen holder of a microtome (Cryo-Star HM 560 M, Microm International, Germany) set to −20 °C. The samples were sectioned at 10 µm thickness. […] A control tissue section from the same intestinal region from non-dosed animal was placed on each slide to enable a direct comparison to be made. All slides were kept at −80 °C until MALDI-MSI analysis. Tissue sections were also stained using haematoxylin and eosin (H&E) following a standard histological protocol for fresh frozen tissues. […]
structure (smiles),measurement,setting,value
CC(C)NCC(O)COc1ccc(CC(N)=O)cc1 (stereo not drawn) [Atenolol],Caco-2 Papp,Caco-2,0.20 1E-6.cm/s
same,overall absorption,[1],around 50%
same,compound remaining in the intestine 45 min post-dosing,[2],about 50%
same,distribution along the crypt-villus axis (ion images),"[3]; oral 1 µmol/kg, 20 min, 15 µm spatial resolution",more evenly distributed along the whole crypt-villus axis
same,distance downstream from the stomach of highest relative abundance (MALDI-MSI),"[3]; oral 1 µmol/kg, 20 min post administration",50–60 cm
same,distribution along the height of the villi (ion images),[3]; oral 10 µmol/kg,more even distribution along the height of the villi
